# Small-molecule microarray binding calls

Data from the ROBIN nucleic acid binder screens, doi:10.1002/anie.202211358.

Oligonucleotides screened, 5′ to 3′:
SAM-II: SAM-II riboswitch RNA pseudoknot, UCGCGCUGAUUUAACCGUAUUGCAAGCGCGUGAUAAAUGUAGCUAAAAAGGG. About 21,000 compounds screened, about 200 hits.
TPP: TPP riboswitch RNA three-way junction, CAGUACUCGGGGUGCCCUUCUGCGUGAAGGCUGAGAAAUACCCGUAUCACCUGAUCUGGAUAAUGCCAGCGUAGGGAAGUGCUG. About 24,000 compounds screened, about 160 hits.
PreQ1: PreQ1 riboswitch RNA pseudoknot, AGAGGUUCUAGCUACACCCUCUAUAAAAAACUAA. From B. subtilis. About 24,000 compounds screened, about 170 hits.

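Each compound is printed as two spots on a slide made to bind it covalently, so it has no test concentration; the read-out is fluorescence of the bound, labelled oligonucleotide. The data file lists only calls. An earlier report of the laboratory on the PreQ1, TPP and SAM-II riboswitches (doi:10.1038/s41467-019-09493-3) used 1 µM RNA for 2 h and required a mean Z-score above 3 (spot signal-to-noise against the whole library), a score well above that on a control array, and duplicate spots agreeing (coefficient of variation under 100); it then also set aside compounds that hit other targets, which this list keeps. The cut-offs behind this list may differ. A missing hit is not proof of no binding, and a hit is not a measured affinity.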
“active” means called a hit, “inactive” means screened and not called a hit.
The compounds are a random part of those screened.
A target missing from an entry has no call listed here.
A dash means that no call is listed here.

compound	SAM-II	TPP	PreQ1
C=CCc1ccccc1OCC(O)Cn1cnc2ccccc21 (centres undefined)	inactive	inactive	inactive
C=CCN[C@H]1CS(=O)(=O)C[C@@H]1S(=O)(=O)c1ccc(OCC)cc1	-	inactive	inactive
Cc1ccc(NCc2ccc(C(=O)NCCc3c[nH]cn3)cc2)cc1	inactive	inactive	inactive
Clc1nc(Oc2ccccc2)nc(-c2cn(-c3ccccc3)c3ccccc23)n1	inactive	inactive	inactive
CC[C@@]1(O)CCN(c2nc(C(F)(F)F)ccc2C(N)=O)C[C@H]1O	inactive	inactive	inactive
COc1ccc(CN2CCC(N)CC2)cc1OC	inactive	inactive	inactive
N[C@H]1CCCN(C(=O)c2cnc(COc3ccccc3)nc2O)C1	inactive	inactive	inactive
COc1ccc(Cn2nnc(C(=O)Nc3ccc(Br)cc3)c2N)cc1	inactive	inactive	inactive
CC(C)=CCCC(C)=CCCC(C)=CCCC(C)=CCCC(C)=CCCC(C)=CCCC(C)=CCCC(C)=CCCC(C)=CCO	inactive	inactive	inactive
CCc1nnc(NCC2CCCCCN2)o1 (centres undefined)	inactive	inactive	inactive
CNC(=O)[C@H](CC1=CN=C2C=CCC=C12)NC(=O)[C@@H](CC(=O)NO)CC(C)C	inactive	inactive	inactive
NCc1ccc(NC(=O)NCCCCC2CCCO2)cc1 (centres undefined)	inactive	inactive	inactive
Cc1ccn2c(-c3csc(Nc4cccc(O)c4)n3)c(C)nc2c1	inactive	inactive	inactive
CC1=C(C(=O)OCc2ccccc2)C2(C(=O)Nc3ccccc32)C(C(=O)OCc2ccccc2)=C(N)O1 (centres undefined)	inactive	inactive	inactive
CCOc1cc(CO)ccc1OCc1ccc(C(=O)O)cc1	inactive	inactive	inactive
FC(F)(F)c1cc(-c2ccccc2)nc(NCc2cccs2)n1	inactive	inactive	inactive
Cl.c1ccc2c(OCCCCNCCN3CCOCC3)cccc2c1	inactive	inactive	inactive
CCc1cc(C(=O)N2C[C@H](CO)C[C@H](CN3CCCC3)C2)ccn1	inactive	inactive	inactive
COc1ccc(CCNc2nc(C)cc(C)n2)cc1OC	inactive	inactive	inactive
CS(=O)(=O)N1CCc2c(-c3cnc(N)nc3)nc(N3CCOCC3)nc21	inactive	inactive	inactive
Cc1cc(C)nc(N2CCC(NCC3=CCCCC3)CC2)n1	inactive	inactive	inactive
COC(=O)c1nnn(CC(=O)Nc2ccc(C)cc2C)c1N	inactive	inactive	inactive
CN1CCN(C[C@@H]2CN(Cc3ccc(N(C)C)nc3)C[C@@H]2CO)CC1	inactive	inactive	inactive
Cc1ccc(SCCCNCC(C)O)cc1.O=C(O)C(=O)O (centres undefined)	inactive	inactive	inactive
Cc1ccccc1NC(=O)Cn1nnc(C(=O)NCc2ccccc2)c1N	inactive	inactive	inactive
CCC(=O)c1ccc(OCC(O)COc2ccc(C(=O)CC)cc2OC)c(OC)c1	inactive	inactive	inactive
Nc1nnc(-c2cc(-c3ccc(Cl)cc3)on2)o1	inactive	inactive	inactive
CC(C)Cc1ccc(-c2n[nH]c3c2C(c2ccsc2)C(C#N)=C(N)O3)cc1 (centres undefined)	inactive	inactive	inactive
N#CC1C(=O)NC(=O)C(C#N)C12CCCC(C(F)(F)F)C2 (centres undefined)	inactive	inactive	inactive
Cc1ccc(S(=O)(=O)[C@H]2CS(=O)(=O)C[C@@H]2NC2CCCCC2)cc1	-	inactive	inactive
CCOC(=O)c1cnc2c(-c3ccc(OC)cc3)cnn2c1N	inactive	inactive	inactive
O=C(c1ccccc1-c1ccccc1)N1C[C@@H](CN2CCCCC2)[C@@H](CO)C1	inactive	inactive	inactive
Cc1cnc(N2C[C@H]3OC(=O)N(CCCN4CCOCC4)[C@H]3C2)nc1N	inactive	inactive	inactive
Cc1ccccc1NC(=O)COc1ccc(CCO)cc1	inactive	inactive	inactive
Cc1ccc(O)c(-c2n[nH]c3c2C(c2cccc(OCCC(C)C)c2)N(CCO)C3=O)c1 (centres undefined)	-	inactive	inactive
Nc1c(C(=O)Nc2cccc(C(F)(F)F)c2)sc2nc(-c3cccs3)ccc12	inactive	inactive	inactive
CCCC(O)c1nc2ccccc2n1CCCOc1ccc(Cl)cc1 (centres undefined)	-	inactive	inactive
CNCC(=O)Nc1cccc(NC(=O)Cc2ccccc2)c1	inactive	inactive	inactive
Nc1nc2c(s1)C(c1ccc3c(c1)OCO3)CC(=O)N2 (centres undefined)	inactive	inactive	inactive
COCCCNCc1c(C(=O)O)n(Cc2ccccc2C)c2ccccc12	-	inactive	inactive
CC(C)(C)c1[nH]nc2c1C(c1cccnc1)C(C#N)=C(N)O2 (centres undefined)	inactive	inactive	inactive
Nc1nc(F)cc(N2CCCCCC2)n1	inactive	inactive	inactive
O=C1CCCC(=O)C1C(=O)c1ccc(C(F)(F)F)cc1[N+](=O)[O-]	inactive	inactive	inactive
Cc1cc(C)nc(NS(=O)(=O)c2ccc(NC(=O)CSc3nnc(N)s3)cc2)n1	inactive	inactive	inactive
CNc1oc(-c2ccc(COc3ccc(OC)cc3)o2)nc1C#N	-	inactive	inactive
COc1ccccc1C(=O)C(O)c1ccccc1OC (centres undefined)	inactive	inactive	inactive
CC12CN3CC(C)(CN(C1)C3c1cccc(N)c1)C2O (centres undefined)	-	inactive	inactive
OCCSc1nnc(CCSCc2ccccc2)n1-c1ccccc1	-	inactive	inactive
COc1ccc2c(c1)OCC(CNC1CSCCSC1)C2 (centres undefined)	inactive	inactive	inactive
Cc1ncc(S(C)(=O)=O)c(NCCc2noc(CO)n2)n1	inactive	inactive	inactive

For reference, 4 entries once more:

{"compound": "CCC(=O)c1ccc(OCC(O)COc2ccc(C(=O)CC)cc2OC)c(OC)c1", "SAM-II": "inactive", "TPP": "inactive", "PreQ1": "inactive"}
{"compound": "CN1CCN(C[C@@H]2CN(Cc3ccc(N(C)C)nc3)C[C@@H]2CO)CC1", "SAM-II": "inactive", "TPP": "inactive", "PreQ1": "inactive"}
{"compound": "CNCC(=O)Nc1cccc(NC(=O)Cc2ccccc2)c1", "SAM-II": "inactive", "TPP": "inactive", "PreQ1": "inactive"}
{"compound": "CC12CN3CC(C)(CN(C1)C3c1cccc(N)c1)C2O", "stereo": "centres undefined", "TPP": "inactive", "PreQ1": "inactive"}